# Results from patent US10508140B2 (CAREGEN CO., LTD., priority 2016, dated 2019).
# No end group written: not given here.
# Assay: general procedure: peptide synthesis; chlorotrityl chloride resin
# Settings: whole synthesis
sequence,measurement,setting,value
WKWRSADTL,crude mass,,0.73 g
same,crude yield,scale of the general procedure 700 mg resin,93.1%
